Experimental findings from patent US20150056630A1, “DNA CONTROLLING MIR-140 EXPRESSION, AND SCREENING METHOD OF DRUGS USING SAID DNA” (NATIONAL CENTER FOR CHILD HEALTH AND DEVELOPMENT, priority 2012, published 2015) are described below.

Construct, isoform or probe ends are uncertain for at least one entry. For some of these results: Weaker means in comparison with the reference protein, sequence or condition of that experiment. For some of these results: Where a protein sequence is shown, tags need not be part of it.

For one series, the system named is L-Sox5 + Sox6 + Sox9. The series is described as follows: activity in cells. The settings on record: protein in cells, protein details: HA (pcDNA3-HA vectors), co-expressed in 293T.
In the next series the target is T1, Sox9 (UniProt Q04887).
T1 sequence (looked up, limits assumed): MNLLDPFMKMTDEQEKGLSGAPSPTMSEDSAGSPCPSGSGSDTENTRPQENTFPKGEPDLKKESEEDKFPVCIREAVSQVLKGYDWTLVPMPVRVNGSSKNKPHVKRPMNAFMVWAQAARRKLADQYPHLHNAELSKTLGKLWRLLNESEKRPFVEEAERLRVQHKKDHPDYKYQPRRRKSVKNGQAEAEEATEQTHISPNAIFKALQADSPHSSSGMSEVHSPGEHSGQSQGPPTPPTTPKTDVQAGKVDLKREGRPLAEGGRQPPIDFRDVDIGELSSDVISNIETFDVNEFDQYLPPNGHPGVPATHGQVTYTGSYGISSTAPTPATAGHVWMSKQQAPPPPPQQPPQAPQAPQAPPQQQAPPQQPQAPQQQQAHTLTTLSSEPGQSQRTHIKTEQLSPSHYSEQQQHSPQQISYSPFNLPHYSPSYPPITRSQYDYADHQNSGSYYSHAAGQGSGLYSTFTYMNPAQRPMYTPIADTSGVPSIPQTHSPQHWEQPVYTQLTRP
Description: activity in cells. Particulars: protein in cells, protein details: HA (pcDNA3-HA-Sox9), expressed in 293T.

The mark [1] stands for this setting: lower than 3k, variant of pGL4-miR140-3k.
Setting [2] is: similar to 3k with Sox9 alone, variant of pGL4-miR140-3k.

“CAGCTCCTCCAACTTTTCAGGCTTCCTTTGTGAAAGGGGCCCTATCCCATCAAGGAACCTATGGTTTCAAGACTTACTGTTGGAATTACTTGGAAGAGGAGCCTGTGTTGCCACCTTGGGAAGAAAGTTTCTCTGTCCCTTCAGTTGGGGGTAGCGGGAGGGCTGCAGTGGGCTTGGCTGGCAGTGGAGCACCACTGGTATTTGCACAAGGCTGGACTGAGCCCCATTCATCGTCCTGCTGCTGTGTGCGGCTCTGTCATCCCCAGATGGAGCCAGCCAGGTCTGCAGCCTGAAGTCTGCATTCAGAACTTGATCCCCTAATACGATGATTAAATTCTAGTAAGTGAAATAAAAATGCTTGAGTGGGGGAGAGAACGGAGTCAAATAATCGTCGTTTTATTTAACTATGAAAAGTTTTTGACATGCGCCCTCTGCATCCCGAAGGCTACGAGGACTCTCTCTCCATCTATTGCAGCCCTTCCCCTGGGACCTTGAGGCAATAATAGGCCGAAGGGGCAGTGTAAATGGTGACCCTGACGGCCCAAAGCCCCTTCCCCCTTCCCTTTCACCAGCCCCAGCACCAACTCCCCAGACAGGCAAACACAGAACACTGAGCAACTTGAGGTTCAGGCAGGGAAGAATAAAGGTGCTTTGTGAAGGGAAAGGAAAACATTTCTGGGGGAGGTGAGGGGCTTGGGCATGAAAGTGCCCTCAGTCTGGGTGGATGCTGCACACCCAGGAGGGAGGTGGTGGGAGGAGGGCCGGGCCCCAGCCAGGAAGCCCTGGGCGTGGGCAGGGCTTGTGGGAATGATTTCATTGGAAAGGCCTGCGGTATTTTTTCCCCTCCTGTGTGTGGTTCTTGGAGAAAGTTGGAGGTGGTGAGGATTTCAGTTGCCTTGGCCGCCGGGCGGGAGCAGGAGCTGAGCAGAGGTCGGT (double strand) [pGL4-miR140-1k]”: the “activity on this sequence” value in the series on L-Sox5 + Sox6 + Sox9 (same activity as 3k, variant of pGL4-miR140-3k) is recorded as “active”.

For the sequence “GCCACCTTGGGAAGAAAGTTTCTCTGTCCCTTCAGTTGGGGGTAGCGGGAGGGCTGCAGTGGGCTTGGCTGGCAGTGGAGCACCACTGGTATTTGCACAAGGCTGGACTGAGCCCCATTCATCGTCCTGCTGCTGTGTGCGGCTCTGTCATCCCCAGATGGAGCCAGCCAGGTCTGCAGCCTGAAGTCTGCATTCAGAACTTGATCCCCTAATACGATGATTAAATTCTAGTAAGTGAAATAAAAATGCTTGAGTGGGGGAGAGAACGGAGTCAAATAATCGTCGTTTTATTTAACTATGAAAAGTTTTTGACATGCGCCCTCTGCATCCCGAAGGCTACGAGGACTCTCTCTCCATCTATTGCAGCCCTTCCCCTGGGACCTTGAGGCAATAATAGGCCGAAGGGGCAGTGTAAATGGTGACCCTGACGGCCCAAAGCCCCTTCCCCCTTCCCTTTCACCAGCCCCAGCACCAACTCCCCAGACAGGCAAACACAGAACACTGAGCAACTTGAGGTTCAGGCAGGGAAGAATAAAGGTGCTTTGTGAAGGGAAAGGAAAACATTTCTGGGGGAGGTGAGGGGCTTGGGCATGAAAGTGCCCTCAGTCTGGGTGGATGCTGCACACCCAGGAGGGAGGTGGTGGGAGGAGGGCCGGGCCCCAGCCAGGAAGCCCTGGGCGTGGGCAGGGCTTGTGGGAATGATTTCATTGGAAAGGCCTGCGGTATTTTTTCCCCTCCTGTGTGTGGTTCTTGGAGAAAGTTGGAGGTGGTGAGGATTTCAGTTGCCTTGGCCGCCGGGCGGGAGCAGGAGCTGAGCAGAGGTCGGT (double strand) [pGL4-miR140-0.8k]”, the figures for the “activity on this sequence” value in the series on L-Sox5 + Sox6 + Sox9 (setting [1]) and in the series with Sox9 (setting [2]) were “less active” and “active”, respectively.

In the case of “GTATTTGCACAAGGCTGGACTGAGCCCCATTCATCGTCCTGCTGCTGTGTGCGGCTCTGTCATCCCCAGATGGAGCCAGCCAGGTCTGCAGCCTGAAGTCTGCATTCAGAACTTGATCCCCTAATACGATGATTAAATTCTAGTAAGTGAAATAAAAATGCTTGAGTGGGGGAGAGAACGGAGTCAAATAATCGTCGTTTTATTTAACTATGAAAAGTTTTTGACATGCGCCCTCTGCATCCCGAAGGCTACGAGGACTCTCTCTCCATCTATTGCAGCCCTTCCCCTGGGACCTTGAGGCAATAATAGGCCGAAGGGGCAGTGTAAATGGTGACCCTGACGGCCCAAAGCCCCTTCCCCCTTCCCTTTCACCAGCCCCAGCACCAACTCCCCAGACAGGCAAACACAGAACACTGAGCAACTTGAGGTTCAGGCAGGGAAGAATAAAGGTGCTTTGTGAAGGGAAAGGAAAACATTTCTGGGGGAGGTGAGGGGCTTGGGCATGAAAGTGCCCTCAGTCTGGGTGGATGCTGCACACCCAGGAGGGAGGTGGTGGGAGGAGGGCCGGGCCCCAGCCAGGAAGCCCTGGGCGTGGGCAGGGCTTGTGGGAATGATTTCATTGGAAAGGCCTGCGGTATTTTTTCCCCTCCTGTGTGTGGTTCTTGGAGAAAGTTGGAGGTGGTGAGGATTTCAGTTGCCTTGGCCGCCGGGCGGGAGCAGGAGCTGAGCAGAGGTCGGT (double strand) [pGL4-miR140-0.7k]”, the “activity on this sequence” value in the series on L-Sox5 + Sox6 + Sox9 (setting [1]) is “less active”; in the series with Sox9 (setting [2]) it was “active”.

Turning to “GTTTTCTCAAGCCGACACTGAGCCCCATTCATCCTCCTGCCCATGTGTGGCTCCGGCACCCCTAGACGGGGCCAGCCCAGCAGCCTGAAGTCCGCATTTAGAACTTGATCCCCTCTTATAACGATTAAATTTTAGTAAGTAAAATAAAAATGCTTCAGAAAGAAAAAAAAGAAAGGAAGAAAGAGTGGAACAATACTTGTTTTATTTAACGACCAGAACTTTTTGACAACACCCCCCTTCCCCGCAGGATATGAGAATGCCTGGTCCACTGCAGTCCATCCCCAGGGACCTCGAAGCAGAATTTGGCTGGAGGGGGTGCGGGGGGGATTCTAATGTAAACAGTGACCCTGAAGCCCTGGAGCCAGTTCCCCCTTCTTTCCCCTGTCTCCCCTTCTGTCTTGCTGCCCCACCCCCAGCCCCAACACCCCCCACCCCCCCCACCCCCACCCCGAGACAAACACAGAACACTGAGCAACTTCAGGTTCAGGCAGGGGAGGAATAAAGGTGCTTTGTAAAGGGGAAGGAAAACATTCCTGGGGGAGGTGAGGGCTTGGGGCATGAATGTGCCCTCAGTCTGGGTGGACGCTGCACACCCAGATGGGAGGTTGGGGGGGACGCCGAGGTGGAGGGAGGAGGGCCGGGCCCCAGCCAGGAAGCTCTGGGCGTGGGCAGGGCTTGTGGGAATGATTTCATTGGAAAGGCCTGCGATATTTTTTCCCCTCCTGCGTGTGGTTCTTGGAGAAAGTTGGAGGTGGTGGTGATTTCAGTCGCCTTGGCCGCCTTGAGCCGGAGCTGAGCGGAGGCACT (double strand) [pGL4-hgmiR140-0.7k]”, the “activity on this sequence” value in the series with L-Sox5 + Sox6 + Sox9 (further potentiated by L-Sox5 and/or Sox6, variant of pGL4-hgmiR140-3k) is “active”; in the series with Sox9 (luciferase increased by Sox9, variant of pGL4-hgmiR140-3k), “active”.
